# According to the supplement of paper PMC8728848:
# The other results are listed elsewhere or left out.
# B1: Epa2 (Candida glabrata) (protein)
# chain: MGSSHHHHHHSSGLVPRGSHMASSKDPTSFPMGCSPQVLKTQPGLAVKLYSYGHPVPGCAYNTYQYPDFPRSGYKKERKLADITGVNGRIDIDLKPNDPCRVLSGNLPSNYNYQNTLTYTNFTMILYGYFQPKVTGYHTFNLEADDLLFMNLGAGNAFDCCRAESTLDNFGNYQSYSIWGTDKATADLTVFLVSGIYYPIRLFYVNRDNNAVLDFSFSTEFNKEIIHDFTSYFFSASDEEQCPGNI
# Experiments:
# Test in all cases: glycan array binding signal (z-score within array); higher = stronger binding
# Conditions in all cases: glycan notation: IUPAC condensed, linker removed
# [1] = target: Gal(b1-4)GlcNAc(b1-2)Man(a1-6)[GlcNAc(b1-2)Man(a1-3)]Man(b1-4)GlcNAc(b1-4)GlcNAc
# Outline: (§1)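 From the Consortium for Functional Glycomics database, 3228 arrays were curated, keeping only those whose protein sequence was available. Binding is given as a within-array Z-score averaged across arrays sharing a protein sequence and across linkers. Negative Z-scores can be read as non-binding.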
# [2] = target: Gal(b1-4)GlcNAc(b1-2)Man(a1-6)[Man(a1-3)]Man(b1-4)GlcNAc(b1-4)GlcNAc
# Outline: as §1
# [3] = target: Gal(b1-4)GlcNAc(b1-2)[Gal(b1-4)GlcNAc(b1-4)]Man(a1-3)[Gal(b1-4)GlcNAc(b1-2)Man(a1-6)]Man(b1-4)GlcNAc(b1-4)GlcNAc
# Outline: as §1
# [4] = target: Gal(b1-4)GlcNAc(b1-2)[Gal(b1-4)GlcNAc(b1-4)]Man(a1-3)[Gal(b1-4)GlcNAc(b1-2)[Gal(b1-4)GlcNAc(b1-6)]Man(a1-6)]Man(b1-4)GlcNAc(b1-4)GlcNAc
# Outline: as §1
# [5] = target: Gal(b1-4)GlcNAc(b1-2)[Gal(b1-4)GlcNAc(b1-4)]Man(a1-3)[GlcNAc(b1-4)][Gal(b1-4)GlcNAc(b1-2)Man(a1-6)]Man(b1-4)GlcNAc(b1-4)GlcNAc
# Outline: as §1
# [6] = target: Gal(b1-4)GlcNAc(b1-2)[Gal(b1-4)GlcNAc(b1-4)]Man(a1-3)[GlcNAc(b1-4)][Gal(b1-4)GlcNAc(b1-2)[Gal(b1-4)GlcNAc(b1-6)]Man(a1-6)]Man(b1-4)GlcNAc(b1-4)GlcNAc
# Outline: as §1
# [7] = target: Gal(b1-4)GlcNAc(b1-2)[Gal(b1-4)GlcNAc(b1-6)]Man(a1-6)[Gal(b1-4)GlcNAc(b1-2)Man(a1-3)]Man(b1-4)GlcNAc(b1-4)GlcNAc
# Outline: as §1
# [8] = target: Gal(b1-4)GlcNAc(b1-2)[Gal(b1-4)GlcNAc(b1-6)]Man(a1-6)[Gal(b1-4)GlcNAc(b1-2)Man(a1-3)]Man(b1-4)GlcNAc(b1-4)[Fuc(a1-6)]GlcNAc
# Outline: as §1
# [9] = target: Gal(b1-4)GlcNAc(b1-2)[Gal(b1-4)GlcNAc(b1-6)]Man(a1-6)[GlcNAc(b1-4)][Gal(b1-4)GlcNAc(b1-2)Man(a1-3)]Man(b1-4)GlcNAc(b1-4)GlcNAc
# Outline: as §1
# [10] = target: Gal(b1-4)GlcNAc(b1-2)[Gal(b1-4)GlcNAc(b1-6)]Man(a1-6)[GlcNAc(b1-4)][Gal(b1-4)GlcNAc(b1-2)[Gal(b1-4)GlcNAc(b1-4)]Man(a1-3)]Man(b1-4)GlcNAc(b1-4)[Fuc(a1-6)]GlcNAc
# Outline: as §1
# [11] = target: Gal(b1-4)GlcNAc(b1-3)Gal(b1-3)GalNAc
# Outline: as §1
# [12] = target: Gal(b1-4)GlcNAc(b1-3)Gal(b1-3)GlcNAc
# Outline: as §1
# [13] = target: Gal(b1-4)GlcNAc(b1-3)Gal(b1-4)Glc
# Outline: as §1
# [14] = target: Gal(b1-4)GlcNAc(b1-3)Gal(b1-4)GlcNAc
# Outline: as §1
# [15] = target: Gal(b1-4)GlcNAc(b1-3)Gal(b1-4)GlcNAc(b1-2)Man(a1-3)[Gal(b1-4)GlcNAc(b1-3)Gal(b1-4)GlcNAc(b1-2)Man(a1-6)]Man(b1-4)GlcNAc(b1-4)GlcNAc
# Outline: as §1
# [16] = target: Gal(b1-4)GlcNAc(b1-3)Gal(b1-4)GlcNAc(b1-2)Man(a1-3)[Gal(b1-4)GlcNAc(b1-3)Gal(b1-4)GlcNAc(b1-2)Man(a1-6)]Man(b1-4)GlcNAc(b1-4)[Fuc(a1-6)]GlcNAc
# Outline: as §1
# [17] = target: Gal(b1-4)GlcNAc(b1-3)Gal(b1-4)GlcNAc(b1-2)[Gal(b1-4)GlcNAc(b1-3)Gal(b1-4)GlcNAc(b1-6)]Man(a1-6)[Gal(b1-4)GlcNAc(b1-3)Gal(b1-4)GlcNAc(b1-2)Man(a1-3)]Man(b1-4)GlcNAc(b1-4)GlcNAc
# Outline: as §1
# [18] = target: Gal(b1-4)GlcNAc(b1-3)Gal(b1-4)GlcNAc(b1-2)[Gal(b1-4)GlcNAc(b1-3)Gal(b1-4)GlcNAc(b1-6)]Man(a1-6)[Gal(b1-4)GlcNAc(b1-3)Gal(b1-4)GlcNAc(b1-2)Man(a1-3)]Man(b1-4)GlcNAc(b1-4)[Fuc(a1-6)]GlcNAc
# Outline: as §1
binder,measurement,setting,value
B1,glycan array binding signal (z-score),[1],-0.753
same,glycan array binding signal (z-score),[2],-0.741
same,glycan array binding signal (z-score),[3],0.106
same,glycan array binding signal (z-score),[4],-0.495
same,glycan array binding signal (z-score),[5],-0.305
same,glycan array binding signal (z-score),[6],-0.379
same,glycan array binding signal (z-score),[7],-0.121
same,glycan array binding signal (z-score),[8],0.429
same,glycan array binding signal (z-score),[9],-1.25
same,glycan array binding signal (z-score),[10],0.04
same,glycan array binding signal (z-score),[11],0.503
same,glycan array binding signal (z-score),[12],-0.725
same,glycan array binding signal (z-score),[13],0.248
same,glycan array binding signal (z-score),[14],-0.158
same,glycan array binding signal (z-score),[15],1.61
same,glycan array binding signal (z-score),[16],0.286
same,glycan array binding signal (z-score),[17],0.94
same,glycan array binding signal (z-score),[18],0.612

# Part of the list above, with bars between the fields.
binder | measurement | setting | value
B1 | glycan array binding signal (z-score) | [8] | 0.429
same | glycan array binding signal (z-score) | [11] | 0.503
